From publication doi:10.1101/2023.06.17.545066 (bioRxiv, 2023)
Results are given in words; binding and its absence hold for the method and conditions named. Some binding calls cover weakened binding; strength is not graded here.

Tests used:
[1] = molecular target: T1, Escherichia coli L-tartrate dehydratase α subunit (E. coli) (UniProt P05847); assay: SEC
T1 sequence: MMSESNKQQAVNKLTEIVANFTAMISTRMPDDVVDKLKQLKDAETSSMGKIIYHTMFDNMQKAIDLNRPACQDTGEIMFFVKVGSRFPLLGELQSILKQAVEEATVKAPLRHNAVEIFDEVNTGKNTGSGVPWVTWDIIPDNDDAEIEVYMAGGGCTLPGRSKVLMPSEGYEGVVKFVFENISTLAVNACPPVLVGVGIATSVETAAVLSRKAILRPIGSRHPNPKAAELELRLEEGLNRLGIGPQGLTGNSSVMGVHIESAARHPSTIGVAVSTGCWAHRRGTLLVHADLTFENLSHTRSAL

[2] = molecular target: T1, Escherichia coli L-tartrate dehydratase α subunit (E. coli); assay: co-purification

B1: Escherichia coli L-tartrate dehydratase β subunit (enzyme, UniProt P0AC35 1-201)
chain: MKKILTTPIKAEDLQDIRVGDVIYLTGTLVTCRDVCHRRLIELKRPIPYDLNGKAIFHAGPIVRKNGDKWEMVSVGPTTSMRMESFEREFIEQTGVKLVVGKGGMGPLTEEGCQKFKALHVIFPAGCAVLAATQVEEIEEVHWTELGMPESLWVCRVKEFGPLIVSIDTHGNNLIAENKKLFAERRDPIVEEICEHVHYIK
binding [1]: binds | binding [2]: binds
